Reference: PubChem BioAssay AID1259405 (NCATS, 2018)
The deposit covers about 50,000 reagents; below is a random part of them. About 4,000 of all reagents (8%) were called active. 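Mouse siRNA library applied to hamster cells; one well for each siRNA.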 Unmarked entries are inactive. The numbers tell different reagents against one gene apart. Not all columns of the deposit are shown. No sequences are given here.

Assay: 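Knock-downs that lift recombinant protein yield in hamster ovary cells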 (primary screen)
System: Chinese hamster CHO-K1 ovary cells with stable secreted eGFP expression
Reagent: single siRNA against mouse genes, 0.8 pmol siRNA per well (2 µl of 400 nM stock)
Timing: 3 days
Detection: 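Percent of the per-plate non-targeting control median for intracellular GFP per well by laser scanning cytometry and for cell viability by ATP luminescence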
Scale: GFP, % of control: higher = more GFP per well, higher productivity
Active means: 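Called active when intracellular GFP, relative to negative control, is at or above 120%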

GFP, % of control, by gene and reagent
Wwc2 (WW, C2 and coiled-coil domain containing 2): #1 83.5; #2 153 (active); #3 88.9
Wnt4 (WNT family member 4): #1 61.5; #2 52.5; #3 44.9
Calb1 (calbindin 1): #1 95.3; #2 65.4
Pon1 (paraoxonase 1): #1 95.6; #2 103; #3 61.2
Smpd4 (sphingomyelin phosphodiesterase 4): #1 31.2; #2 67.9; #3 108
Mia3 (MIA SH3 domain ER export factor 3): #1 61.8; #2 50.3; #3 95.1
Marchf1 (membrane associated ring-CH-type finger 1): #1 47.9; #2 105; #3 70.7
Naaladl1 (N-acetylated alpha-linked acidic dipeptidase-like 1): #1 95.2; #2 85.2; #3 80.5
Or13e8 (olfactory receptor family 13 subfamily E member 8): #1 63.2; #2 70.1; #3 101
Rab3b (RAB3B, member RAS oncogene family): #1 63.4; #2 114
A2m (alpha-2-macroglobulin): #1 96.5; #2 78.2
Htr4 (5 hydroxytryptamine (serotonin) receptor 4): #1 45.5; #2 54; #3 70.9
Syce2 (synaptonemal complex central element protein 2): #1 77.2; #2 61.9; #3 79

In a second layout: results already given.
{"Gene":"A2m (alpha-2-macroglobulin)","reagent no.":1,"GFP, % of control":96.5}
{"Gene":"A2m (alpha-2-macroglobulin)","reagent no.":2,"GFP, % of control":78.2}
